The supplement of paper PMC4604168 (melanoma cell lines)
The list shows a part of the results. Single values are uncertain, as repeats are few or missing.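 The apoptosis fraction was the count of cleaved-PARP antibody-stained nuclei relative to all DNA-stained nuclei, imaged in 1,536-well plates. Screening doses were set so most cells survived, and baseline and induced cleaved-PARP levels vary greatly across cell lines.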

Tests used:
Test in all cases: cleaved PARP positive nuclei fraction relative to DMSO control; melanoma cells; higher = more apoptosis
Conditions in all cases: library dose: low library concentration; 72 h
MZ2-MEL = tested on: MZ2-MEL
MeWo = tested on: MeWo
RPMI7951 = tested on: RPMI7951
RVH-421 = tested on: RVH-421
SkMel28 = tested on: SkMel28
SkMel2 = tested on: SkMel2
SkMel30 = tested on: SkMel30
SkMel5 = tested on: SkMel5
UACC257 = tested on: UACC257
UACC62 = tested on: UACC62
WM115 = tested on: WM115
WM1716 = tested on: WM1716
WM1745 = tested on: WM1745
WM3526 = tested on: WM3526
WM3619 = tested on: WM3619
WM451Lu = tested on: WM451Lu

Row | SMILES | cleaved PARP positive nuclei fraction (MZ2-MEL) | cleaved PARP positive nuclei fraction (MeWo) | cleaved PARP positive nuclei fraction (RPMI7951) | cleaved PARP positive nuclei fraction (RVH-421) | cleaved PARP positive nuclei fraction (SkMel28) | cleaved PARP positive nuclei fraction (SkMel2) | cleaved PARP positive nuclei fraction (SkMel30) | cleaved PARP positive nuclei fraction (SkMel5) | cleaved PARP positive nuclei fraction (UACC257) | cleaved PARP positive nuclei fraction (UACC62) | cleaved PARP positive nuclei fraction (WM115) | cleaved PARP positive nuclei fraction (WM1716) | cleaved PARP positive nuclei fraction (WM1745) | cleaved PARP positive nuclei fraction (WM3526) | cleaved PARP positive nuclei fraction (WM3619) | cleaved PARP positive nuclei fraction (WM451Lu)
1 | O=C(O)[C@@H]1[O][Sb](=[O])([O][Sb]2(=[O])[O][C@H]([C@H](O)CO)[C@H](O)[C@H](C(=O)O)[O]2)[O][C@H]([C@H](O)CO)[C@@H]1O (some centres undefined) [stibogluconate] + CCN(CC)CCCCNc1ncc2cc(-c3cc(OC)cc(OC)c3)c(NC(=O)NC(C)(C)C)nc2n1 [PD173074] (first compound 2 µM, partner dose 0.1 µM) | 83.1% | 27.5% | 92.2% | 145% | 106% | 82.3% | 65.5% | 70.7% | 79.8% | 173% | 61.5% | 79.6% | 88.3% | 74.3% | 84.8% | 125%
2 | Nc1ccn([C@@H]2O[C@H](CO)[C@@H](O)C2(F)F)c(=O)n1 [gemcitabine] + COc1ccc(COc2ccc(Cc3cnc(N)nc3N)cc2OC)cc1 [GW2580] (first compound 0.0004 µM, partner dose 1 µM) | 77.2% | 51.9% | 135% | 43.6% | 117% | 55.2% | 223% | 73.3% | 45.1% | 48.3% | 111% | 161% | 113% | 39.3% | 156% | 35.4%
3 | CNC(=O)c1cc(Oc2ccc(NC(=O)Nc3ccc(Cl)c(C(F)(F)F)c3)cc2)ccn1 [sorafenib] + CN(C)S(=O)(=O)c1ccc2c(c1)/C(=C/c1cc3c([nH]1)CCCC3)C(=O)N2 [SU6656] (first compound 0.4 µM, partner dose 0.4 µM) | 137% | 108% | 87.4% | 94.2% | 232% | 59.6% | 67% | 75.5% | 399% | 74.9% | 81.2% | 39.6% | 85.7% | 62.8% | 80.4% | 59.6%
4 | Nc1nc(F)nc2c1ncn2[C@@H]1O[C@H](CO)[C@@H](O)[C@@H]1O [fludarabine] + CCN(CC)CCCCNc1ncc2cc(-c3cc(OC)cc(OC)c3)c(NC(=O)NC(C)(C)C)nc2n1 [PD173074] (first compound 0.2 µM, partner dose 0.1 µM) | 116% | 1020% | 68.1% | 60.3% | 125% | 636% | 394% | 404% | 88.1% | 60.9% | 105% | 135% | 82% | 246% | 115% | 431%
